Measured values published in patent US20190015379A1, “USE OF DIANHYDROGALACTITOL AND ANALOGS AND DERIVATIVES THEREOF, TOGETHER WITH RADIATION, TO TREAT NON-SMALL-CELL CARCINOMA OF THE LUNG AND GLIOBLASTOMA MULTIFORME AND SUPPRESS PROLIFERATION OF CANCER STEM CELLS” (DelMar Pharmaceuticals, Inc., priority 2014, published 2019).
For at least one compound, name, drawing or mass did not settle the structure.

Experiments:
[1] = system: CSC and non-CSC cultures derived from primary GBM tissue; experiment: Cell cycle analysis (propidium iodide staining, FACS) in primary GBM cultures; type: cell-based, human; details: washed out after 3 hours versus left on; 7996 GNS, 8279 GNS, 7996 ML, 8565 ML
Experimental: (§1) “GAPDH” refers to glyceraldehyde-3-phosphate dehydrogenase as a control. For the cell cultures, CSCs were cultured in NSA media supplemented with B27, EGF and bFGF. Non-CSCs were grown in DMEM:F12 with 10% FBS. MGMT methylation and protein expression analysis of each culture was characterized. TMZ or VAL-083 was added to the cultures in the indicated concentrations. Depending on the experiment, cells were also irradiated with 2 Gy in a Cesium irradiator. For assays, cell cycle analysis was performed with Propidium Iodide staining and FACs analysis. Cell viability was analyzed with CellTiter-Glo™ and read on a Promega GloMax™. […] In FIG. 4, “1° GBM” refers to primary glioblastoma multiforme cell cultures.
In FIG. 16, cells were treated with either increasing doses of TMZ (5, 50 100 and 200 μM) or dianhydrogalactitol (“VAL-083”) (1, 5, 25 and 100 μM) and cell cycle analysis was performed 4 days post treatment.
Additional experiments were performed to test the effect of the duration of drug administration. […] Dianhydrogalactitol was left on for the duration of the treatment.

GBM = details: Eagan (1979), Stupp (2005); cited from earlier work
[2] = system: CSC and non-CSC cultures derived from primary GBM tissue; experiment: Cell viability (CellTiter-Glo) in primary GBM cultures with or without radiation; type: cell-based, human; details: TMZ 50 μM; paired CSC and non-CSC 7996 culture; viability day 6 post treatment
Experimental: as §1
In FIG. 17, TMZ (50 μM) or dianhydrogalactitol (“VAL-083”) (5 μM) were added to primary CSC cultures at various doses with or without irradiation (2 Gy). Shown are cell cycle profile analysis at day 4 post treatment (A,C) and cell viability analysis at day 6 post treatment (B,D) for the paired CSC (A,B) and non-CSC (C,D) 7996 culture.
In FIG. 18, dianhydrogalactitol (“VAL-083”) was added to primary CSC cultures at various doses (1, 2.5 and 5 μM) with or without irradiation (2 Gy). Shown are cell cycle profile analysis at day 4 post treatment (A,C) and cell viability analysis at day 6 post treatment (B,D) for two different patient-derived CSC cultures, 7996 (A,B) and 8565 (C,D).

In the case of `Cn1nnc2c(C(N)=O)ncn2c1=O` [temozolomide, reference compound], the “effect of duration of drug exposure on cell cycle” value [1] is listed as “did not appear to have any more effect if left on for longer than 3 hours”, the “Median O.S. (XRT + Chemo)” value (GBM) is listed as 58 weeks and the “cell viability / sensitivity of the cultures” value [2] is listed as “not very sensitive to TMZ”.
